These are yes or no findings as the source states them, for the method shown. In cells and extracts the contact can be indirect. Some results given as binding are weak or reduced against the parent protein; the word gives no strength. For some assays here: Tags and fused reporters may be left off the sequences shown.

The chains behind the UniProt entries cited, without tags or fusion partners.
UniProt Q86WV6: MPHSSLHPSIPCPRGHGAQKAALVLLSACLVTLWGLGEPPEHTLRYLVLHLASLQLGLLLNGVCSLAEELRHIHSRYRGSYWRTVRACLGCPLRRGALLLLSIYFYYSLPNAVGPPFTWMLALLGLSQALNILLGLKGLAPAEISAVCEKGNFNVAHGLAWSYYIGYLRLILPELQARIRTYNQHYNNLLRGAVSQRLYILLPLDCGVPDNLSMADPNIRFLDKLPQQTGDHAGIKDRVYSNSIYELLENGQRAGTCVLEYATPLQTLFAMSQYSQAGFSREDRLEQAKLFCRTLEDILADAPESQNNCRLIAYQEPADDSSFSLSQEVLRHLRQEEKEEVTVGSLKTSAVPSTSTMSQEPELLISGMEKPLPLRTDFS

Assay [1] concerns the target Mediator of IRF3 activation (MITA) (human (endogenous in THP-1)) (UniProt Q86WV6). Nature of the assay: co-IP; endogenous co-IP in M1 and M2 cells derived from TDM cells; antibodies conjugated to resin (CO-IP kit, Pierce); in the presence of MG132 (20 uM); Western blot.
The next assay concerns the target HA-MITA (UniProt Q86WV6). As to the kind of experiment: co-IP; HEK-293T cells transiently co-transfected with HA-MITA and Flag-GSDMD or HA-MITA and Flag-NLRP3, harvested after 48 h; extracts incubated 12-16 h with the indicated antibodies, then protein A/G beads 2-4 h; in the presence of MG132 (20 uM); Western blot. For orientation: Immunoblotting shows a protein as a band on a membrane.

B1: GSDMD (protein, UniProt P57764 1-484)
chain: MGSAFERVVRRVVQELDHGGEFIPVTSLQSSTGFQPYCLVVRKPSSSWFWKPRYKCVNLSIKDILEPDAAEPDVQRGRSFHFYDAMDGQIQGSVELAAPGQAKIAGGAAVSDSSSTSMNVYSLSVDPNTWQTLLHERHLRQPEHKVLQQLRSRGDNVYVVTEVLQTQKEVEVTRTHKREGSGRFSLPGATCLQGEGQGHLSQKKTVTIPSGSTLAFRVAQLVIDSDLDVLLFPDKKQRTFQPPATGHKRSTSEGAWPQLPSGLSMMRCLHNFLTDGVPAEGAFTEDFQGLRAEVETISKELELLDRELCQLLLEGLEGVLRDQLALRALEEALEQGQSLGPVEPLDGPAGAVLECLVLSSGMLVPELAIPVVYLLGALTMLSETQHKLLAEALESQTLLGPLELVGSLLEQSAPWQERSTMSLPPGLLGNSWGEGAPAWVLLDECGLELGEDTPHVCWEPQAQGRMCALYASLALLSGLSQEPH
In the case of B1, the binding result in assay [1] is reported as “binds”.

B2: Flag-GSDMD (protein, UniProt P57764 1-484)
chain: B1 chain
In the case of B2, the binding entry with HA-MITA was “binds”.

The record behind these values is publication PMC10253871.
